This assay relates to Salmonella enterica serovar Typhimurium SL1344. Put plainly: bacterial growth OD600 after 18 h with compound and polymyxin B; higher = more bacterial growth (less inhibition). As to conditions: 50 µM, Mueller-Hinton broth.

Molecules are shown by their SMILES. This is one part of the list. Values are raw readings; no control value is given beside them.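 Primary screen: polymyxin B was added at a level permeabilizing Salmonella outer membranes while sparing inner membranes. DMSO wells, both with and without polymyxin B, established maximum growth. Plate-to-plate variation meant each plate was ranked on its own, and the lowest-OD600 compounds were selected as hits.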

Take `Cc1cccc(NC(=O)N2C[C@H]3OC(=O)N(CCc4ccc(F)cc4)[C@H]3C2)c1`: the “bacterial growth OD600” value (polymyxin B 0.75 µg/mL) was found to be 0.749.

Turning to `Cc1ccc(C(=O)N(C)C2CCCN(CCc3ccccc3)C2)cc1N1CCNC1=O` (centres undefined), where the note is “polymyxin B 1 µg/mL”, the “bacterial growth OD600” value amounted to 1.22.

As to `COCCn1cnc2cc(NC(=O)C3CCCCC3)cc(C(=O)NCc3cccc(F)c3F)c21`, the “bacterial growth OD600” value (polymyxin B 0.75 µg/mL) was found to be 0.734.

Regarding `COc1ccc(CN(C)C2CCOCC2)c(OCC(O)CN2CCCCCCC2)c1` (centres undefined), the “bacterial growth OD600” value (polymyxin B 1 µg/mL) was found to be 1.09.

Take `COCCN1CCN(C(=O)c2cn(Cc3ccc(Cl)cc3)nn2)CC1`: for the setting “polymyxin B 1 µg/mL”, the “bacterial growth OD600” value came to 1.11.

Take `C[C@@H]1CN(Cc2nnnn2CC(=O)N2CCN(C3CCCCC3)C(=O)C2)C[C@H](C)O1`: the “bacterial growth OD600” value (polymyxin B 0.75 µg/mL) stood at 0.814.

Consider `COCCN(Cc1cnc(S(=O)(=O)Cc2ccccc2)n1CC(C)C)C(C)C`, for which the “bacterial growth OD600” value (polymyxin B 1 µg/mL) was found to be 0.046.

Consider `CCn1c(-c2cccc(OC)c2)nc2cc(NC(C)=O)cc(C(=O)NCCCc3ccncc3)c21`, for which the “bacterial growth OD600” value (polymyxin B 0.75 µg/mL) amounted to 0.782.

Take `CC#CC(=O)N1CCCCC1C(=O)Nc1ccc(Oc2ccccc2F)cc1` (centres undefined): the “bacterial growth OD600” value (polymyxin B 1 µg/mL) stood at 0.188.

Turning to `C#CCN(Cc1nc(-c2ccc(OC)c(OC)c2)oc1C)C1CCCCC1`, the “bacterial growth OD600” value (polymyxin B 1 µg/mL) was determined as 0.936.

In the case of `Cc1cc(C(=O)N2CCCC(N3CCN(c4cccc(C(F)(F)F)c4)CC3)C2)nn1C` (centres undefined), where the note is “polymyxin B 1 µg/mL”, the “bacterial growth OD600” value is 0.958.

Consider `Cc1ccc(C(=O)N2CC[C@@H](N3CCN(CCc4ccccc4)CC3)[C@H](O)C2)cc1`, for which the “bacterial growth OD600” value (polymyxin B 1 µg/mL) came out at 1.07.

Take `CC(C)C(=O)N1CCC2(CCCN(Cc3ccc(F)c(F)c3)C2=O)C1` (centres undefined): the “bacterial growth OD600” value (polymyxin B 1 µg/mL) was 0.994.

Consider `CC(=O)c1ccc(-c2cc(F)cc3c2OC(CNC(=O)C2(c4ccccc4)CC2)C3)s1` (centres undefined), for which, where the note is “polymyxin B 0.75 µg/mL”, the “bacterial growth OD600” value was 0.497.

Turning to `COCCNC(=O)c1ccc(OC)cc1OC1CCN(Cc2ccc(Cl)s2)CC1`, the “bacterial growth OD600” value (polymyxin B 1 µg/mL) was found to be 1.09.

For the molecule `CN(CCc1ccccc1)C1CCCN(Cc2ncc[nH]2)C1` (centres undefined), the “bacterial growth OD600” value (polymyxin B 1 µg/mL) was found to be 1.17.

As to `CN(c1ncccc1CNC(=O)C1Cc2ccccc2O1)C1CCCCC1` (centres undefined), the “bacterial growth OD600” value (polymyxin B 1 µg/mL) came to 0.242.

Regarding `Cc1nc(N(C)C2CCCCC2)ncc1C(C)NC(=O)CCn1cncn1` (centres undefined), the “bacterial growth OD600” value (polymyxin B 0.75 µg/mL) was determined as 0.91.

As to `COc1cccc(CC2CN(Cc3cccn3-c3cccnc3)CCO2)c1` (centres undefined), the “bacterial growth OD600” value (polymyxin B 0.75 µg/mL) came to 0.824.

Source of the values: the supplement of paper PMC12889115.
